# Measurements reported in patent US20020169394A1, “Integrated tissue poration, fluid harvesting and analysis device, and method therefor” (priority 1993, published 2002).
# Test system: subjects left forearm
# Assay: Lidocaine delivery through porated stratum corneum with ultrasound; numbness assessed by rubbing a 30 gauge wire across the test site
# Format: in vivo, human
# Settings: Site 2 porated plus ultrasound; first 5 minute application
# Description: The lidocaine solution also contained a chemical permeation enhancer formulation designed to enhance its passive diffusion across the stratum corneum. A drawing of an illustrative delivery apparatus 300 is shown in FIG. 50, wherein the apparatus comprises a housing 304 enclosing a reservoir 308 for holding a drug-containing solution 312. The top portion of the housing comprises an ultrasonic transducer 316 for providing sonic energy to aid in transporting the drug-containing solution through micropores; 320 in the stratum corneum 324. A port 328 in the ultrasonic transducer permits application of pressure thereto for further aiding in transporting the drug-containing solution through the micropores in the stratum corneum. The delivery apparatus is applied to a selected area of an individual's skin such that it is positioned over at least one, and preferably a plurality, of micropores. […]
# Five subjects were tested for the effectiveness of drug delivery using poration together with ultrasound. […] The measured output of the amplifier to the transducer was 0.090 watts RMS.
# After application of the lidocaine, sensation measurements were made by rubbing a 30 gauge wire across the test site. […] Both sites were assessed for numbness using a scale of 10 to 0, where 10 indicated no numbness and 0 indicated complete numbness as reported by the test subjects. […]
compound,measurement,value
CCN(CC)CC(=O)Nc1c(C)cccc1C [lidocaine],diameter of circle outside which no numbness,2.5 cm
